No constants are given. Whether binding was seen depends on the method and setting. Some entries that bind do so weakly or less than the wild type. Where a sequence is shown, tags or fusion partners need not be part of it.

The experiment addresses MmPEG10 (mouse PEG10 produced in E. coli, tags removed) (mouse) (UniProt Q7TN75). The experiment is described as follows: self-assembly of E. coli-produced protein; size exclusion and electron microscopy. Background: In gel filtration, larger molecules generally elute earlier.

B1: MmPEG10 (mouse PEG10 produced in E. coli, tags removed) (protein, UniProt Q7TN75 1-958, looked up)
chain: MAAAGGSSNCPPPPPPPPPNNNNNNNTPKSPGVPDAEDDDERRHDELPEDINNFDEDMNRQFENMNLLDQVELLAQSYSLLDHLDDFDDDDEDDDFDPEPDQDELPEYSDDDDLELQGAAAAPIPNFFSDDDCLEDLPEKFDGNPDMLGPFMYQCQLFMEKSTRDFSVDRIRVCFVTSMLIGRAARWATAKLQRCTYLMHNYTAFMMELKHVFEDPQRREAAKRKIRRLRQGPGPVVDYSNAFQMIAQDLDWTEPALMDQFQEGLNPDIRAELSRQEAPKTLAALITACIHIERRLARDAAAKPDPSPRALVMPPNSQTDPTEPVGGARMRLSKEEKERRRKMNLCLYCGNGGHFADTCPAKASKNSPPGKLPGPAVGGPSATGPERIRSPPSEASTQHLQVMLQIHMPGRPTLFVRAMIDSGASGNFIDQDFVIQNAIPLRIKDWPVMVEAIDGHPIASGPIILETHHLIVDLGDHREILSFDVTQSPFFPIVLGIRWLSTHDPHITWSTRSIVFNSDYCRLRCRMFAQIPSNLLFTVPQPNLHPYLLHHVHPHVHPHMHQHLHQHLHQFLHPDPHQYPHPDPHYHHHQQADMQHQLQQYLYQYLYYHLYPVMHHHLPPDQHEHLHEYLHQYLHQYLHQFLHHHLHPDLHQYLYQYLHNHMNPDPHHHPHPDPPQDPHHPPHQDPHQHPDPHQDPPHQDPHQDAHQDPHMDPHLHQHQHPQPQPHPQQHPNHPQQPPFFYHMAGFRIYHPVRYYYIQNVYTPVDEHVYPGHRVVDPNIEMIPGAHSLPSGHLYSMSESEMNALRNFVDRNVKDGLMTPTVAPNGAQVLQVKRGWKLQVTYNCRAPQSGTIQNQYLRMSLPNMGDPAHLASYGEFVQVPGYPYPAYVYYTSPHMMTAWYPVGRDVHGRIIVVPVVITWSQNTNRQPPVPQYPPPQPPPPPPPPPPPPPPPPASSCSAA
B1: the binding result is “binds”.

Source of the values: US20240084330A1.
